This assay addresses T1, mammalian PDC E1p α subunit, PDHA1-HA-Halo (human) (UniProt P08559).
T1 sequence: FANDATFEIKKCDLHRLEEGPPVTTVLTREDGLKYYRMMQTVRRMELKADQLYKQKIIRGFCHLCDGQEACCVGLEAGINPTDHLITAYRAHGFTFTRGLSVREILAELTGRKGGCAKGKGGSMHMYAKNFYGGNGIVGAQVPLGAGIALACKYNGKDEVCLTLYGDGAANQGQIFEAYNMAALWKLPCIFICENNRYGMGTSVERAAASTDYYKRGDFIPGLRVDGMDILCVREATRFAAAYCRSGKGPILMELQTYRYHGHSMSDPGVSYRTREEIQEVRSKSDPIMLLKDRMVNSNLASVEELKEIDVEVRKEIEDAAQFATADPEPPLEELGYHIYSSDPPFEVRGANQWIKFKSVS
Put plainly: co-IP; Halo purification via PDHA1-HA-Halo from HEK293T cells, then SEC on Superose 6 in 350 mM, 150 mM or 0 mM NaCl; fractions blotted for mPDC components.

This is an account of results in publication PMC7769281, “The plasticity of the pyruvate dehydrogenase complex confers a labile structure that is associated with its catalytic activity” (PLoS ONE, 2020).

These are yes or no findings as the source states them, for the method shown. Binding seen in cells or lysates may run through a third protein. Some results given as binding are weak or reduced against the parent protein; the word gives no strength. Where a sequence is shown, tags or fusion partners need not be part of it.

B1: mammalian PDC E1p β subunit (endogenous) (protein, UniProt P11177 31-359)
chain: LQVTVRDAINQGMDEELERDEKVFLLGEEVAQYDGAYKVSRGLWKKYGDKRIIDTPISEMGFAGIAVGAAMAGLRPICEFMTFNFSMQAIDQVINSAAKTYYMSGGLQPVPIVFRGPNGASAGVAAQHSQCFAAWYGHCPGLKVVSPWNSEDAKGLIKSAIRDNNPVVVLENELMYGVPFEFPPEAQSKDFLIPIGKAKIERQGTHITVVSHSRPVGHCLEAAAVLSKEGVECEVINMRTIRPMDMETIEASVMKTNHLVTVEGGWPQFGVGAEICARIMEGPAFNFLDAPAVRVTGADVPMPYAKILEDNSIPQVKDIIFAIKKTLNI
As for B1, the binding entry was “binds”.

B2: mammalian PDC E2p (endogenous) (protein, UniProt P10515 87-647)
chain: SLPPHQKVPLPSLSPTMQAGTIARWEKKEGDKINEGDLIAEVETDKATVGFESLEECYMAKILVAEGTRDVPIGAIICITVGKPEDIEAFKNYTLDSSAAPTPQAAPAPTPAATASPPTPSAQAPGSSYPPHMQVLLPALSPTMTMGTVQRWEKKVGEKLSEGDLLAEIETDKATIGFEVQEEGYLAKILVPEGTRDVPLGTPLCIIVEKEADISAFADYRPTEVTDLKPQVPPPTPPPVAAVPPTPQPLAPTPSAPCPATPAGPKGRVFVSPLAKKLAVEKGIDLTQVKGTGPDGRITKKDIDSFVPSKVAPAPAAVVPPTGPGMAPVPTGVFTDIPISNIRRVIAQRLMQSKQTIPHYYLSIDVNMGEVLLVRKELNKILEGRSKISVNDFIIKASALACLKVPEANSSWMDTVIRQNHVVDVSVAVSTPAGLITPIVFNAHIKGVETIANDVVSLATKAREGKLQPHEFQGGTFTISNLGMFGIKNFSAIINPPQACILAIGASEDKLVPADNEKGFDVASMMSVTLSCDHRVVDGAVGAQWLAEFRKYLEKPITMLL
On to B2, for which the binding entry is listed as “binds”.
